Record: PubChem BioAssay AID1259308 (NCATS, 2017)
The deposit covers about 59,000 reagents; this is a random part of them. Of all reagents, about 1,510 (2.6%) got an active call. 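Calls use total luciferase alone and ignore viability, so some active siRNAs may act by altering cell number.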 Unmarked entries are inactive. Reagents against one gene are numbered here. Not all columns of the deposit are shown. Reagent sequences are not shown.

- Aim: 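Genes whose loss raises luciferase production in HEK293 cells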 (primary screen)
- Cells: human HEK293 embryonic kidney cells stably expressing firefly luciferase (HEK-CMV-Luc2-Hygro)
- Reagents: single siRNA against human genes, 0.8 pmol siRNA per well
- Duration: 72 h
- Measurement: 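Luciferase light (ONE-Glo) measured on one replicate plate set and viability (CellTiter-Glo) on the other, scaled to a negative control siRNA, with robust z-scores and luciferase per cell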
- Scale: total luciferase, z-score: higher = more reporter protein produced
- Call rule: 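Active when the median/MAD z-score for overall luciferase is greater than 3; a gene was taken forward for validation with new siRNAs if at least two of its three siRNAs passed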
- Meaning of the calls: active = raised luciferase; inactive = no rise

MYCBP #1 → total luciferase, z-score = -0.351
MYCBP #2 → total luciferase, z-score = 0.562
MYCBP #3 → total luciferase, z-score = 1.35
TWIST1 #1 → total luciferase, z-score = 0.909
TWIST1 #2 → total luciferase, z-score = 0.58
TWIST1 #3 → total luciferase, z-score = 0.537
ANKRD62 #1 → total luciferase, z-score = -1.04
ANKRD62 #2 → total luciferase, z-score = 0.511
ANKRD62 #3 → total luciferase, z-score = -0.591
PAPPA2 #1 → total luciferase, z-score = -0.66
PAPPA2 #2 → total luciferase, z-score = 0.931
PAPPA2 #3 → total luciferase, z-score = 2.53
CD40LG #1 → total luciferase, z-score = 0.297
CD40LG #2 → total luciferase, z-score = -2.2
CD40LG #3 → total luciferase, z-score = 0.856
ATP6V1F #1 → total luciferase, z-score = 0.502
ATP6V1F #2 → total luciferase, z-score = 0.0635
ATP6V1F #3 → total luciferase, z-score = 1.76
DNAJA2 #1 → total luciferase, z-score = 0.79
DNAJA2 #2 → total luciferase, z-score = -0.829
DNAJA2 #3 → total luciferase, z-score = 0.133
SAG #1 → total luciferase, z-score = -0.0631
SAG #2 → total luciferase, z-score = 0.186
SAG #3 → total luciferase, z-score = 0.612
HIRIP3 #1 → total luciferase, z-score = -0.517
HIRIP3 #2 → total luciferase, z-score = -0.782
HIRIP3 #3 → total luciferase, z-score = -0.189
LGMN #1 → total luciferase, z-score = -0.681
LGMN #2 → total luciferase, z-score = 2.2
LGMN #3 → total luciferase, z-score = -0.139
MANF #1 → total luciferase, z-score = -1.01
MANF #2 → total luciferase, z-score = -1.66
MANF #3 → total luciferase, z-score = 1.13
JMJD6 #1 → total luciferase, z-score = 2.23
JMJD6 #2 → total luciferase, z-score = -0.0267
JMJD6 #3 → total luciferase, z-score = 0.414
LINC01704 #1 → total luciferase, z-score = 0.309
LINC01704 #2 → total luciferase, z-score = -0.712
LINC01704 #3 → total luciferase, z-score = 1.01
COX5A #1 → total luciferase, z-score = 0.794
COX5A #2 → total luciferase, z-score = 4.02 (active)
COX5A #3 → total luciferase, z-score = 0.244

As entered above.
Result of LINC01704 #1 in “total luciferase, z-score”: 0.309
Under “total luciferase, z-score”, SAG #1 is entered as -0.0631
COX5A #3, total luciferase, z-score = 0.244
Under “total luciferase, z-score”, PAPPA2 #1 reads -0.66
